Results taken from PMC2859380.
These are yes or no findings as the source states them, for the method shown. Binding seen in cells or lysates may run through a third protein. Some entries that bind do so weakly or less than the wild type.

T1: MED26 (Drosophila melanogaster) (UniProt Q9V4F9)
T1 sequence: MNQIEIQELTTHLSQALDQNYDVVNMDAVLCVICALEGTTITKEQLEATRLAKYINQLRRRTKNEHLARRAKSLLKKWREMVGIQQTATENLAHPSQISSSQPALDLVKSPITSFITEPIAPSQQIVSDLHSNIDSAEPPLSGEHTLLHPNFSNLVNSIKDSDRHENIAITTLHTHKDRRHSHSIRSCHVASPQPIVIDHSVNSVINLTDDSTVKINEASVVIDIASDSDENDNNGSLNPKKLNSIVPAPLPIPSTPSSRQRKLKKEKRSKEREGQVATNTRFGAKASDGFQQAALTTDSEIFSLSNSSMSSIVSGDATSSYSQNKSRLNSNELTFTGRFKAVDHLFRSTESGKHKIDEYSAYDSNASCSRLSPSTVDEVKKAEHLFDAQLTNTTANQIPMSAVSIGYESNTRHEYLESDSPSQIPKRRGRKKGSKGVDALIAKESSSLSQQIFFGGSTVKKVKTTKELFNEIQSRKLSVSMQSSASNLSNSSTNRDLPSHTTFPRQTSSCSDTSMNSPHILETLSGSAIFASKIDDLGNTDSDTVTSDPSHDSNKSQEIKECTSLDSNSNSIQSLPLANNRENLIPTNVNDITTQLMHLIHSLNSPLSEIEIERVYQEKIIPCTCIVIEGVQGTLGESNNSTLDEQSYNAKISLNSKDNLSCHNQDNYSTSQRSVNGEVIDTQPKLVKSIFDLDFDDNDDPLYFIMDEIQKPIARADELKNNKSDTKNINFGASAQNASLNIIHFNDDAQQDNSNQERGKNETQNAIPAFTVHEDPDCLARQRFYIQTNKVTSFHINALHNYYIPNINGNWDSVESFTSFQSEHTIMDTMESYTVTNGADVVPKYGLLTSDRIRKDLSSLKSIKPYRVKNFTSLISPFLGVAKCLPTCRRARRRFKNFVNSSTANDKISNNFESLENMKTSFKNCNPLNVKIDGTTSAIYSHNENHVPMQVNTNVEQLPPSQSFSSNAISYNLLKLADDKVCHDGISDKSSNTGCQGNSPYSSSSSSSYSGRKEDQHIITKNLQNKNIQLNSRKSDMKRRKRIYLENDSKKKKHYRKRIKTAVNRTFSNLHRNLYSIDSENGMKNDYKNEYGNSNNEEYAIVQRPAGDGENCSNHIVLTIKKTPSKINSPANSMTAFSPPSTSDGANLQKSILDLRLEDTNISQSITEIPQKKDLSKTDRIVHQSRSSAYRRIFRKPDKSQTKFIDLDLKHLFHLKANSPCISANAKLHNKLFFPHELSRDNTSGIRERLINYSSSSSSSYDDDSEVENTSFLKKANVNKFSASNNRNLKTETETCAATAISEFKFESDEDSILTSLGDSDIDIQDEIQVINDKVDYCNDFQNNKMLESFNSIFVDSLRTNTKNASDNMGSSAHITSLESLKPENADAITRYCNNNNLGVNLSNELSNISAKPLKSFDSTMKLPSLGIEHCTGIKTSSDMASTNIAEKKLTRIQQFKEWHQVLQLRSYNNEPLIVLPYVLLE

T2: MED4 (Drosophila melanogaster) (UniProt Q9VS38)
T2 sequence: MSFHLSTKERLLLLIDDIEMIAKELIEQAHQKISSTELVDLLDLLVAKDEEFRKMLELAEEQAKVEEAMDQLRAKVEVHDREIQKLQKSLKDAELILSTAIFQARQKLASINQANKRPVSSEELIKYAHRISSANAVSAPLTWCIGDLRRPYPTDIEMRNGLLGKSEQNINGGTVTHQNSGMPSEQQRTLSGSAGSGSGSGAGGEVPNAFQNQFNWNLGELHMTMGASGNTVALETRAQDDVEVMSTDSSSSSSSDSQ

T3: MED28 (Drosophila melanogaster) (UniProt Q9VBQ9)
T3 sequence: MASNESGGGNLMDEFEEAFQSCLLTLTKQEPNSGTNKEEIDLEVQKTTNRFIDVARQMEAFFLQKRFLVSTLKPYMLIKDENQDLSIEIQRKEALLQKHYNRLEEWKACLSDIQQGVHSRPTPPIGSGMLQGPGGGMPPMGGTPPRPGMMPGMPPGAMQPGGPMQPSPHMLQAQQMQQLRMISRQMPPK


Assays:
Experiment in all cases: co-IP; pairs tagged with FLAG or HA, co-expressed in Kc167 cells; lysate in radioimmunoprecipitation assay buffer (50 mM Tris pH 7.4, 150 mM NaCl, 0.1% SDS, 0.5% sodium deoxycholate, 1% NP40); immunoprecipitated with anti-FLAG, membranes probed with anti-HA, stripped, probed with anti-FLAG
[1] = target: T1, MED26 (Drosophila melanogaster)
[2] = target: T2, MED4 (Drosophila melanogaster)
[3] = target: T3, MED28 (Drosophila melanogaster)

binding [1]	Binder	further results
binds	MED17 (protein, UniProt Q9VEC1 1-642) MSNSVNISVETTCENQIREIGYDGTELYQPPPTLSESLAKCAARIDFSKTSLDDLKKEEKSAAAAADEDKDATQFQESLWPWDAVRNKLKDALTEICVLSDVISIAKDKRYLVLDPLLEEADDTKPIVQVYSRKKAISQAAQVLLSGAERLRNAHSEQRNRNVSDFHIELLRLRQNWRLKKVSNAIIGDLSYRTAGSKFGMSGTFEVTKAEETGDEDTASSSNSSSSVSGNNGMQLKASSALRVIVPAELQGVAYIKVITQKDQEDLCTAQLNLMGHGPNITAQVGVWQKTLEFAQNVLFCKELFAQLAREAIQLQAPIPHVVIGNQIRATLLPNIQLIISLCHSTTFDSSQPAPINDHDHVLEHSLHQLLREVHYKNSHHPFPHPASAPLGPTKKRMLAGPMAADRETLLDMTKSQTILEQIIAQAQHIFMRKRTQYVLDTLARDVKDPQIVSHWNAMNSPTMSCVKINIVTHGYDAIGRTSLVIHVKERSLKCICRDGRVMRLSYEPQELRDLILCQINSHQISCLISLARCMSWTVLSNSNHLGIGKVEPLGNASSCLLASPNSDRMIAVQIRCDPQIDVKVYIARSPRQDFFPSPLVPEKLWENLGGTFKEVRFDKIEGKSFLNKMEFLMASLTSNTA	
no binding	MED6 (protein, UniProt Q8MSX2 1-249) MASRQMTNDHLRLSWHDTQMMATLSPQTVMDYFCRKSNPFYDHMCNNETVRMQRLGPEHLHNMIGLEYILLHVAEPILYVIRKQHRHNPSEATPIADYYIIGGTVYKAPDLANVINSRILNTVVNLQSAFEEASSYARYHPNKGYTWDFSSNKVFSDRSKSDKKDANSAKDENSGTLFQKQRVDMLLAELLRKFPPPIPPMLQNLQQPPPAGDDLNTARNASEMNNATGPLDIKTEGVDMKPPPEKKSK	
	MED26 (protein, UniProt Q9V4F9 1-1483) MNQIEIQELTTHLSQALDQNYDVVNMDAVLCVICALEGTTITKEQLEATRLAKYINQLRRRTKNEHLARRAKSLLKKWREMVGIQQTATENLAHPSQISSSQPALDLVKSPITSFITEPIAPSQQIVSDLHSNIDSAEPPLSGEHTLLHPNFSNLVNSIKDSDRHENIAITTLHTHKDRRHSHSIRSCHVASPQPIVIDHSVNSVINLTDDSTVKINEASVVIDIASDSDENDNNGSLNPKKLNSIVPAPLPIPSTPSSRQRKLKKEKRSKEREGQVATNTRFGAKASDGFQQAALTTDSEIFSLSNSSMSSIVSGDATSSYSQNKSRLNSNELTFTGRFKAVDHLFRSTESGKHKIDEYSAYDSNASCSRLSPSTVDEVKKAEHLFDAQLTNTTANQIPMSAVSIGYESNTRHEYLESDSPSQIPKRRGRKKGSKGVDALIAKESSSLSQQIFFGGSTVKKVKTTKELFNEIQSRKLSVSMQSSASNLSNSSTNRDLPSHTTFPRQTSSCSDTSMNSPHILETLSGSAIFASKIDDLGNTDSDTVTSDPSHDSNKSQEIKECTSLDSNSNSIQSLPLANNRENLIPTNVNDITTQLMHLIHSLNSPLSEIEIERVYQEKIIPCTCIVIEGVQGTLGESNNSTLDEQSYNAKISLNSKDNLSCHNQDNYSTSQRSVNGEVIDTQPKLVKSIFDLDFDDNDDPLYFIMDEIQKPIARADELKNNKSDTKNINFGASAQNASLNIIHFNDDAQQDNSNQERGKNETQNAIPAFTVHEDPDCLARQRFYIQTNKVTSFHINALHNYYIPNINGNWDSVESFTSFQSEHTIMDTMESYTVTNGADVVPKYGLLTSDRIRKDLSSLKSIKPYRVKNFTSLISPFLGVAKCLPTCRRARRRFKNFVNSSTANDKISNNFESLENMKTSFKNCNPLNVKIDGTTSAIYSHNENHVPMQVNTNVEQLPPSQSFSSNAISYNLLKLADDKVCHDGISDKSSNTGCQGNSPYSSSSSSSYSGRKEDQHIITKNLQNKNIQLNSRKSDMKRRKRIYLENDSKKKKHYRKRIKTAVNRTFSNLHRNLYSIDSENGMKNDYKNEYGNSNNEEYAIVQRPAGDGENCSNHIVLTIKKTPSKINSPANSMTAFSPPSTSDGANLQKSILDLRLEDTNISQSITEIPQKKDLSKTDRIVHQSRSSAYRRIFRKPDKSQTKFIDLDLKHLFHLKANSPCISANAKLHNKLFFPHELSRDNTSGIRERLINYSSSSSSSYDDDSEVENTSFLKKANVNKFSASNNRNLKTETETCAATAISEFKFESDEDSILTSLGDSDIDIQDEIQVINDKVDYCNDFQNNKMLESFNSIFVDSLRTNTKNASDNMGSSAHITSLESLKPENADAITRYCNNNNLGVNLSNELSNISAKPLKSFDSTMKLPSLGIEHCTGIKTSSDMASTNIAEKKLTRIQQFKEWHQVLQLRSYNNEPLIVLPYVLLE	binding [2]: binds
	ix (protein, UniProt Q7KBL8 1-188) MNPNMNMMPMSGPQMMQVMQSSPSGPPGPVQHQQQQPPQPLQQQQQAEKLDNISRVKSLLGPLRESMFLTIRSSAFALQQNNLADNLKRDTGAHHVPRFDKHLEDFYACCDQIEIHLKTAMQCLQQQNSSNHYLPGPVTPMRMETFMPDNAGPISYPTYLNTVRVHIQSAKDIHDTLISAAQNISQAD	binding [3]: binds
